We go through 35 targets from the supplement of paper PMC11732987, “Enantioselective OTUD7B fragment discovery through chemoproteomics screening and high-throughput optimisation” (Communications Chemistry, 2025).

By UniProt entry, the sequences of proteins in these tests, tags left out. Where a name states a change or a piece, a line headed by the entry shows the natural chain unless it says otherwise. Residues count along the entry.
UniProt Q9NQS1, 313-335: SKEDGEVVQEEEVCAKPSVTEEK
UniProt P11274, 235-254: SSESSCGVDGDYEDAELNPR
UniProt Q8NBF6: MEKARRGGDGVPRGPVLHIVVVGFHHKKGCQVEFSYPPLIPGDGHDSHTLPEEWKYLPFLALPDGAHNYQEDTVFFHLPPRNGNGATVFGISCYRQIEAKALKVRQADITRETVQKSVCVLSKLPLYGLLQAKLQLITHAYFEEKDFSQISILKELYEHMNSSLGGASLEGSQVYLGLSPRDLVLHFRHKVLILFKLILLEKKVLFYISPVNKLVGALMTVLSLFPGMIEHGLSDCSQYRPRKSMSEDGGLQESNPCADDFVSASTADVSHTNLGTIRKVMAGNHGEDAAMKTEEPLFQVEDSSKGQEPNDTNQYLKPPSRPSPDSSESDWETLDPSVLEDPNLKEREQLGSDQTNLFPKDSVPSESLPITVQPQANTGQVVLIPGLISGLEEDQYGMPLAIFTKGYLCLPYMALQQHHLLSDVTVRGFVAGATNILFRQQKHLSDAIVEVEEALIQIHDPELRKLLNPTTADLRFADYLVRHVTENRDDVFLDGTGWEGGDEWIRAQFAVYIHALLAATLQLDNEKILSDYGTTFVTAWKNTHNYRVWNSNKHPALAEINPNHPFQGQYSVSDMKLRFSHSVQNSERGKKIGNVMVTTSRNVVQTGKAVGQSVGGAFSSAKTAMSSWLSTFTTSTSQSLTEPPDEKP
UniProt P0C7T5, 634-655: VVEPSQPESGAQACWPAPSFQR
UniProt Q6VMQ6, 101-124: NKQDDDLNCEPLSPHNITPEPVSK
UniProt Q14692: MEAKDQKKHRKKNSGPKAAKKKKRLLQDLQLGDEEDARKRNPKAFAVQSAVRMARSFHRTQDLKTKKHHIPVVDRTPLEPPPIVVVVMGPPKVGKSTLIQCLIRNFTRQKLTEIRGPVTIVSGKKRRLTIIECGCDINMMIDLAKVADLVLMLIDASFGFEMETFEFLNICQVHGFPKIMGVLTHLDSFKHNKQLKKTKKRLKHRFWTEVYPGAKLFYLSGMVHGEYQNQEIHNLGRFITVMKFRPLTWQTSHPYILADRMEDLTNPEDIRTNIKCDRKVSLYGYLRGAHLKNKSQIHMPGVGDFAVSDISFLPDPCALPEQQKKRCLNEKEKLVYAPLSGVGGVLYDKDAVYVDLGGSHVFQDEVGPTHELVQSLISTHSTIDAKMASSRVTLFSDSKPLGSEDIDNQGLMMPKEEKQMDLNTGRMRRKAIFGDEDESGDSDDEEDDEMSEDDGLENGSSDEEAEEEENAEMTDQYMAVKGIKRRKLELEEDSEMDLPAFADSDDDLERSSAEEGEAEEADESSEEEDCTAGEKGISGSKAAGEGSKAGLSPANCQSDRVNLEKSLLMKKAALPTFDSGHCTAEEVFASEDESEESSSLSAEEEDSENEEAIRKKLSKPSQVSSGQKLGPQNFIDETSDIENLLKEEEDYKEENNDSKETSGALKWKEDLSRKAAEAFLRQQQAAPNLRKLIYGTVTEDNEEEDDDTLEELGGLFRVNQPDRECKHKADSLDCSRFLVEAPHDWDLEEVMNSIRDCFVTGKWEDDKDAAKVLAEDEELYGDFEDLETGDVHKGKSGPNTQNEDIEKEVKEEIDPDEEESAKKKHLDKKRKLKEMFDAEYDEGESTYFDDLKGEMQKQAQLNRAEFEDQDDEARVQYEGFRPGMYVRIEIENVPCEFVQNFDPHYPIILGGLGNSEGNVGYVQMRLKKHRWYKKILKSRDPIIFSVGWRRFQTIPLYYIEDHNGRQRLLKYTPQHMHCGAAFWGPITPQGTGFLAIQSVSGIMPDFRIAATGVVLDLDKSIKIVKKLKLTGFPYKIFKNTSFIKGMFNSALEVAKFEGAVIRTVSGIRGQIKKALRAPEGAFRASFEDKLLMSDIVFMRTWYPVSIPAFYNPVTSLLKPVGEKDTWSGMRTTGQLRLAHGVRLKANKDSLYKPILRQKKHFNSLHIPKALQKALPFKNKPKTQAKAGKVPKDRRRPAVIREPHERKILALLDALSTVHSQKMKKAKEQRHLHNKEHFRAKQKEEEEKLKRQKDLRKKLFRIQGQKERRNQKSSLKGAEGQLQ
UniProt Q8WY36, 574-601: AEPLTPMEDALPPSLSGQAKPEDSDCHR
UniProt P61421: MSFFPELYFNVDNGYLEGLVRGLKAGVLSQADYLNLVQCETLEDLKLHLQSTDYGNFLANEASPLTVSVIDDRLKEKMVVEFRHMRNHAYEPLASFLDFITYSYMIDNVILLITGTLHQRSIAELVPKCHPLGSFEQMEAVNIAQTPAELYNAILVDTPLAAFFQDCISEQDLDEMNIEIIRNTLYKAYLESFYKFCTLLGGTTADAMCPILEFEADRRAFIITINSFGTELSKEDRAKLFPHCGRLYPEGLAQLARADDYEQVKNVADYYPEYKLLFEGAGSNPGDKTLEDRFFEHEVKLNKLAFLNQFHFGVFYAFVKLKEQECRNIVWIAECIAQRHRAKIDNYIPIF
UniProt O00512, 112-132: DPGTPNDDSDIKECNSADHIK
UniProt Q9NT62, whole entry, looked up: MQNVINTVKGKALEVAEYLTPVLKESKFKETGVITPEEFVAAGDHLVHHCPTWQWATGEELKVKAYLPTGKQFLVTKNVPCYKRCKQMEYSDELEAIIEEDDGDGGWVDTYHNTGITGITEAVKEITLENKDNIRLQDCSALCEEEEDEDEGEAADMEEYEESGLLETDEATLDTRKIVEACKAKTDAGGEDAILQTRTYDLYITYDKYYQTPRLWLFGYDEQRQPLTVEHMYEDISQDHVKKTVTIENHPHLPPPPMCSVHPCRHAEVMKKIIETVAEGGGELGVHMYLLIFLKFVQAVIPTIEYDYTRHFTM
UniProt Q9ULI0: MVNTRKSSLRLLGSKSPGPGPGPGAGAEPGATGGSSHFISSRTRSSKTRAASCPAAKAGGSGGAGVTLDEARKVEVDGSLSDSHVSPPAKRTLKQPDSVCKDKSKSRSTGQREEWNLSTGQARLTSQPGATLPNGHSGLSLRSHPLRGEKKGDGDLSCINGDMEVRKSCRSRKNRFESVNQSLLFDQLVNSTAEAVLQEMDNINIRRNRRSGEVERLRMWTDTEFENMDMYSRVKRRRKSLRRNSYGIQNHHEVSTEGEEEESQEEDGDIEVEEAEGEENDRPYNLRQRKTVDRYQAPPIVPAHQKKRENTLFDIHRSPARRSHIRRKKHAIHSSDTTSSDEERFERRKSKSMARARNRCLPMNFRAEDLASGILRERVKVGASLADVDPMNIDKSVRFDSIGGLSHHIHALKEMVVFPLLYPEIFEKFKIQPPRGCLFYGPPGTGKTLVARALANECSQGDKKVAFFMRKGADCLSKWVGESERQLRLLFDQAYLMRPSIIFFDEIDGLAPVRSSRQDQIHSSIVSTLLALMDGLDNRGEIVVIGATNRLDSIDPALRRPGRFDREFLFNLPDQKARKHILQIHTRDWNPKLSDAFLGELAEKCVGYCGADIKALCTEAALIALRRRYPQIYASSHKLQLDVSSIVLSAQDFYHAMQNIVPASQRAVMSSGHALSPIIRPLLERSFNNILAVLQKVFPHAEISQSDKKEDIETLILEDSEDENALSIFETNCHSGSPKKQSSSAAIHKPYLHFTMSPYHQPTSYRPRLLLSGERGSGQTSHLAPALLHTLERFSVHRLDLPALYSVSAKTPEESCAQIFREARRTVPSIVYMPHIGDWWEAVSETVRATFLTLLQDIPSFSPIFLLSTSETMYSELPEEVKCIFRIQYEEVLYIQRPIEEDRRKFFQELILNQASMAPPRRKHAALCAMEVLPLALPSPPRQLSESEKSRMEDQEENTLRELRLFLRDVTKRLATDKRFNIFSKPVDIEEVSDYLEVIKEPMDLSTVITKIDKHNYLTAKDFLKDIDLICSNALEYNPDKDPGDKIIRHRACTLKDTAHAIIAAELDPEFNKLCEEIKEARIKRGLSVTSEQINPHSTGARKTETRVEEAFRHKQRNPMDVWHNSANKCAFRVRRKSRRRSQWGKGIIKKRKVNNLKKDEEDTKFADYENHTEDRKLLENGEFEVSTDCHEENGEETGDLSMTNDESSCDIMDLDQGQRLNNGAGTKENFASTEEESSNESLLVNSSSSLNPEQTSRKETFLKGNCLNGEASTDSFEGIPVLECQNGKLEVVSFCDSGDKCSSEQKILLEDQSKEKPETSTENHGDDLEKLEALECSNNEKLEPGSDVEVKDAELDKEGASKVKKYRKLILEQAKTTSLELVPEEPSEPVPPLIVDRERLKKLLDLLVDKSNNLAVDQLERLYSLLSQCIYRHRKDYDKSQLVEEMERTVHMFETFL
UniProt Q8NBU5: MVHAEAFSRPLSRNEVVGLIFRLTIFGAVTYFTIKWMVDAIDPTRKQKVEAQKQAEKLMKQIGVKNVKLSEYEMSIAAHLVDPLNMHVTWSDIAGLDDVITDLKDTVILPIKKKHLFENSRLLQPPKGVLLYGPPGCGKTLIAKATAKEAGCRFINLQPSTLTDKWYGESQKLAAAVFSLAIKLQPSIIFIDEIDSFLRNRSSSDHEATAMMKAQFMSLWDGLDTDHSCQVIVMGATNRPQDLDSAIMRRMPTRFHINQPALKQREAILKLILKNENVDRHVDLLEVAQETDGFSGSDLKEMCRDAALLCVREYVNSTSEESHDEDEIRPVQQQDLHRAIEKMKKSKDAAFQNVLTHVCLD
UniProt Q5H9F3: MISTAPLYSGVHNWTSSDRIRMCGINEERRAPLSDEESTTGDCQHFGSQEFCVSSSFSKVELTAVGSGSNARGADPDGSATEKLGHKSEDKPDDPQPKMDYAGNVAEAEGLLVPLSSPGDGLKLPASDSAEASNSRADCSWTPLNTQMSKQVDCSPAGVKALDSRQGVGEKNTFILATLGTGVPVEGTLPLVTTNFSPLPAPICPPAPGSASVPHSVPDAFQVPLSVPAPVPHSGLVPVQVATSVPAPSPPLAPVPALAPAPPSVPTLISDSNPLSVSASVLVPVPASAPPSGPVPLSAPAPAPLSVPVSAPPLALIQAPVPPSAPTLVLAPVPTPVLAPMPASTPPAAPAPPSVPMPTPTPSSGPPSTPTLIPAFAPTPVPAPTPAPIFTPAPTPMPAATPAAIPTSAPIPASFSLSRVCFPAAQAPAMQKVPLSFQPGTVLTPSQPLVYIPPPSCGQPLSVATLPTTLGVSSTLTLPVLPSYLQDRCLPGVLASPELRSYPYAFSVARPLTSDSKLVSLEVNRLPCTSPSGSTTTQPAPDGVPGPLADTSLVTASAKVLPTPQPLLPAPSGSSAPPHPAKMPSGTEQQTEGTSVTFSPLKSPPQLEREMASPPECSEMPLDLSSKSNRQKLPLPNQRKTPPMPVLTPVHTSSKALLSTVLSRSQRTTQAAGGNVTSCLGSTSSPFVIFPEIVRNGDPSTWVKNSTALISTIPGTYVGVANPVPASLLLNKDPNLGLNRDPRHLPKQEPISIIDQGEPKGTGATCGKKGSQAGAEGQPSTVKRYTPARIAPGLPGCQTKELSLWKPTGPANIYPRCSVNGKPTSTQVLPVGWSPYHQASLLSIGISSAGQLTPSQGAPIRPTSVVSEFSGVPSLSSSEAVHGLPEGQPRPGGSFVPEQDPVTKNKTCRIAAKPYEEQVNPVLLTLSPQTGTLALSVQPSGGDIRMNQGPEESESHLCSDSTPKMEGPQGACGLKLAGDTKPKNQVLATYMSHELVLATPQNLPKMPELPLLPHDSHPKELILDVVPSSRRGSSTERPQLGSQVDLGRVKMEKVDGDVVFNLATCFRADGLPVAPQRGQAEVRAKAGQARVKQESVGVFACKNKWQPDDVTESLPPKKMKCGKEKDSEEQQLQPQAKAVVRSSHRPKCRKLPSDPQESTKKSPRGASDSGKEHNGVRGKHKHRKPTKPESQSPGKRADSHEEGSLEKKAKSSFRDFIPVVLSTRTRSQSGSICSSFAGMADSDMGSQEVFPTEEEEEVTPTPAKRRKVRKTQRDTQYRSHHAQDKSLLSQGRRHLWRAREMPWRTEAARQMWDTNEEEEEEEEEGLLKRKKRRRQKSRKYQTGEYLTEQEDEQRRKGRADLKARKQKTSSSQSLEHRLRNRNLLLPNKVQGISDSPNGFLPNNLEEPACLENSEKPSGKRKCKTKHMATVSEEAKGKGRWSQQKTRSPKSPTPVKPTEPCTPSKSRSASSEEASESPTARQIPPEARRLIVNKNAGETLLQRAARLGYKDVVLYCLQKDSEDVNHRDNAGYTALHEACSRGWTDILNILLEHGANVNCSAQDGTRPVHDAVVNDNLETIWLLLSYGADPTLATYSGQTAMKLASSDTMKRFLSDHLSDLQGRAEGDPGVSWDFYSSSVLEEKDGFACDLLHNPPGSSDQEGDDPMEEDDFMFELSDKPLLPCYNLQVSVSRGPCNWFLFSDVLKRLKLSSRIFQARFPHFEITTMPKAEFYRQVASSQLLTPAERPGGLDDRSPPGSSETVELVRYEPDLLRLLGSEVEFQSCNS

This is one part of the list. The data scatter; read single values as rough.

Compound in one experiment: ClCC(=O)N[C@@H]1CCCc2ccccc12
Nature of the experiment: log2 mean competition ratio of IA-DTB cysteine labelling (DMSO/compound) (log2 ratio); higher = stronger cysteine engagement by compound. The following applies: 50 µM; treatment time: 4 h; cell line lysate: HEK293T. As for the experimental part: (§1)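 IA-DTB competitive cysteine chemoproteomics in HEK293T RIPA lysate. Lysates were treated with compound 29 or 30 at 50 or 200 µM for 4 h, then IA-DTB (500 µM, 1 h), trypsin-digested, NeutrAvidin-enriched and analysed by diaPASEF. Competition ratio = intensity DMSO / intensity compound (n=4 treated, n=64 DMSO); binding: mean log2 CR ≥ 1 and p ≤ 0.05 plus QC filters. Target is the cysteine site.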
In the case of AVEN C326 (UniProt Q9NQS1), the “log2 mean competition ratio” value was -0.443.

In the case of BCR C240 (UniProt P11274), the “log2 mean competition ratio” value was -0.301.

With AVL9 C119 (UniProt Q8NBF6), the “log2 mean competition ratio” value is -0.0494.

Consider ATXN1L C647 (UniProt P0C7T5), for which the “log2 mean competition ratio” value was -0.142.

As for ATF7IP C109 (UniProt Q6VMQ6), the “log2 mean competition ratio” value was -0.563.

With BAZ2A C726 (UniProt Q9UIF9), the “log2 mean competition ratio” value was -0.164.

Consider ATG2B C1750 (UniProt Q96BY7), for which the “log2 mean competition ratio” value was -0.0818.

As to BIRC6 C3404, the “log2 mean competition ratio” value was -0.182.

Consider ASPM C2805 (UniProt Q8IZT6), for which the “log2 mean competition ratio” value amounted to 0.0119.

For the target ATAD5 C433 (UniProt Q96QE3), the “log2 mean competition ratio” value stood at 0.163.

ATP13A1 C345 (UniProt Q9HD20): the “log2 mean competition ratio” value turned out to be 0.156.

On to ASNS C158 (UniProt P08243), for which the “log2 mean competition ratio” value was -0.235.

In the case of BMS1 C101 (UniProt Q14692), the “log2 mean competition ratio” value amounted to 0.0552.

In the case of ATG2B C739 (UniProt Q96BY7), the “log2 mean competition ratio” value turned out to be 0.0183.

With ATF7IP C955 (UniProt Q6VMQ6), the “log2 mean competition ratio” value is -0.175.

As for BBX C599 (UniProt Q8WY36), the “log2 mean competition ratio” value came out at 0.0492.

Turning to ATXN2 C892, the “log2 mean competition ratio” value amounted to 0.153.

On to BAIAP2L1 C182 (UniProt Q9UHR4), for which the “log2 mean competition ratio” value was -0.231.

Take BBX C606 (UniProt Q8WY36): the “log2 mean competition ratio” value worked out at 0.153.

ATP6V0D1 C335 (UniProt P61421): the “log2 mean competition ratio” value was -0.388.

As for ATP6V1H C312 (UniProt Q9UI12), the “log2 mean competition ratio” value was found to be 0.0548.

In the case of ATG2A C1870 (UniProt Q2TAZ0), the “log2 mean competition ratio” value is -0.182.

In the case of ATP2B4 C632 (UniProt P23634), the “log2 mean competition ratio” value was -0.141.

Consider BAZ1A C105 (UniProt Q9NRL2), for which the “log2 mean competition ratio” value was -0.0623.

As to BCL9 C125 (UniProt O00512), the “log2 mean competition ratio” value was -0.371.

Regarding ATG3 C182 (UniProt Q9NT62), the “log2 mean competition ratio” value is -0.00371.

Turning to ATXN2 C852, the “log2 mean competition ratio” value is -0.0193.

With ATAD2B C437 (UniProt Q9ULI0), the “log2 mean competition ratio” value came to 0.29.

On to ATIC C101 (UniProt P31939), for which the “log2 mean competition ratio” value worked out at 0.0448.

Regarding ATAD1 C137 (UniProt Q8NBU5), the “log2 mean competition ratio” value turned out to be 0.462.

On to ATP2C1 C477 (UniProt P98194), for which the “log2 mean competition ratio” value came out at 0.287.

For BCORL1 C797 (UniProt Q5H9F3), the “log2 mean competition ratio” value was -0.0557.

As for ATG4B C333 (UniProt Q9Y4P1), the “log2 mean competition ratio” value was -0.183.

Still in this experiment, the particulars now being: 200 µM; treatment time: 4 h; cell line lysate: HEK293T.
On to AVEN C326 (UniProt Q9NQS1), for which the “log2 mean competition ratio” value was -0.26.

As to BCR C240 (UniProt P11274), the “log2 mean competition ratio” value was 0.299.

On to AVL9 C119 (UniProt Q8NBF6), for which the “log2 mean competition ratio” value is -0.059.

For the target ATXN1L C647 (UniProt P0C7T5), the “log2 mean competition ratio” value is 0.367.

ATF7IP C109 (UniProt Q6VMQ6): the “log2 mean competition ratio” value was determined as 0.0582.

Regarding BAZ2A C726 (UniProt Q9UIF9), the “log2 mean competition ratio” value amounted to 0.25.

In the case of ATG2B C1750 (UniProt Q96BY7), the “log2 mean competition ratio” value came to 0.203.

BIRC6 C3404: the “log2 mean competition ratio” value came to 0.0901.

For the target BMPR1A C503 (UniProt P36894), the “log2 mean competition ratio” value was 0.238.

Take ASPM C2805 (UniProt Q8IZT6): the “log2 mean competition ratio” value is -0.311.

ATAD5 C433 (UniProt Q96QE3): the “log2 mean competition ratio” value was -0.0919.

BDH1 C221 (UniProt Q02338): the “log2 mean competition ratio” value turned out to be 0.0353.

Consider ATP13A1 C345 (UniProt Q9HD20), for which the “log2 mean competition ratio” value was -0.643.

On to ASNS C158 (UniProt P08243), for which the “log2 mean competition ratio” value was -0.115.

On to BMS1 C101 (UniProt Q14692), for which the “log2 mean competition ratio” value was -0.0404.

Take ATG2B C739 (UniProt Q96BY7): the “log2 mean competition ratio” value was -0.194.

For the target ATF7IP C955 (UniProt Q6VMQ6), the “log2 mean competition ratio” value was 0.108.

In the case of BBX C599 (UniProt Q8WY36), the “log2 mean competition ratio” value was -0.202.

For the target ATXN2 C892, the “log2 mean competition ratio” value is -0.295.

For the target BAIAP2L1 C182 (UniProt Q9UHR4), the “log2 mean competition ratio” value amounted to 0.035.

On to BBX C606 (UniProt Q8WY36), for which the “log2 mean competition ratio” value was 0.34.

For the target ATP6V0D1 C335 (UniProt P61421), the “log2 mean competition ratio” value was -0.0622.

On to ATP6V1H C312 (UniProt Q9UI12), for which the “log2 mean competition ratio” value came out at 0.394.

As to ATG2A C1870 (UniProt Q2TAZ0), the “log2 mean competition ratio” value is 0.167.

For ATP2B4 C632 (UniProt P23634), the “log2 mean competition ratio” value is -0.0653.

On to BAZ1A C105 (UniProt Q9NRL2), for which the “log2 mean competition ratio” value was -0.0456.

As for BCL9 C125 (UniProt O00512), the “log2 mean competition ratio” value stood at 0.197.

Turning to ATG3 C182 (UniProt Q9NT62), the “log2 mean competition ratio” value turned out to be 0.126.

Consider ATXN2 C852, for which the “log2 mean competition ratio” value is -0.325.

With ATAD2B C437 (UniProt Q9ULI0), the “log2 mean competition ratio” value worked out at 0.847.

Regarding ATIC C101 (UniProt P31939), the “log2 mean competition ratio” value is -0.0235.

In the case of ATAD1 C137 (UniProt Q8NBU5), the “log2 mean competition ratio” value was 0.14.

Regarding ATP2C1 C477 (UniProt P98194), the “log2 mean competition ratio” value turned out to be 0.22.

In the case of BCORL1 C797 (UniProt Q5H9F3), the “log2 mean competition ratio” value came to 0.146.

Regarding ATG4B C333 (UniProt Q9Y4P1), the “log2 mean competition ratio” value was -0.203.

Compound in the next experiment: ClCC(=O)N[C@H]1CCCc2ccccc12
The experiment is described as above. The following applies: 50 µM; treatment time: 4 h; cell line lysate: HEK293T. As for the experimental part: as §1
With AVEN C326 (UniProt Q9NQS1), the “log2 mean competition ratio” value was 0.0196.

Consider BCR C240 (UniProt P11274), for which the “log2 mean competition ratio” value is 0.0226.

In the case of AVL9 C119 (UniProt Q8NBF6), the “log2 mean competition ratio” value was found to be 0.297.

As for ATXN1L C647 (UniProt P0C7T5), the “log2 mean competition ratio” value came to 0.0918.

With ATF7IP C109 (UniProt Q6VMQ6), the “log2 mean competition ratio” value is -0.481.

For the target BAZ2A C726 (UniProt Q9UIF9), the “log2 mean competition ratio” value was -0.204.

Take ATG2B C1750 (UniProt Q96BY7): the “log2 mean competition ratio” value was -0.0816.

In the case of BIRC6 C3404, the “log2 mean competition ratio” value is -0.0293.

BMPR1A C503 (UniProt P36894): the “log2 mean competition ratio” value is -0.674.

On to ASPM C2805 (UniProt Q8IZT6), for which the “log2 mean competition ratio” value is -0.183.

For the target ATAD5 C433 (UniProt Q96QE3), the “log2 mean competition ratio” value was found to be 0.198.

In the case of BDH1 C221 (UniProt Q02338), the “log2 mean competition ratio” value was -0.306.

As for ATP13A1 C345 (UniProt Q9HD20), the “log2 mean competition ratio” value came to 0.655.

With ASNS C158 (UniProt P08243), the “log2 mean competition ratio” value is -0.408.

As for BMS1 C101 (UniProt Q14692), the “log2 mean competition ratio” value was -0.25.

Regarding ATG2B C739 (UniProt Q96BY7), the “log2 mean competition ratio” value was -0.244.

For the target ATF7IP C955 (UniProt Q6VMQ6), the “log2 mean competition ratio” value stood at 0.0382.

For the target BBX C599 (UniProt Q8WY36), the “log2 mean competition ratio” value was determined as 0.252.

As for ATXN2 C892, the “log2 mean competition ratio” value came out at 0.216.

Take BAIAP2L1 C182 (UniProt Q9UHR4): the “log2 mean competition ratio” value was 0.108.

Consider BBX C606 (UniProt Q8WY36), for which the “log2 mean competition ratio” value turned out to be 0.0534.

For the target ATP6V0D1 C335 (UniProt P61421), the “log2 mean competition ratio” value is -0.00408.

Turning to ATP6V1H C312 (UniProt Q9UI12), the “log2 mean competition ratio” value amounted to 0.536.

Regarding ATG2A C1870 (UniProt Q2TAZ0), the “log2 mean competition ratio” value was -0.456.

Consider ATP2B4 C632 (UniProt P23634), for which the “log2 mean competition ratio” value was found to be 0.0584.

On to BAZ1A C105 (UniProt Q9NRL2), for which the “log2 mean competition ratio” value is -0.0217.

On to BCL9 C125 (UniProt O00512), for which the “log2 mean competition ratio” value is -0.529.

As for ATG3 C182 (UniProt Q9NT62), the “log2 mean competition ratio” value is -0.00675.

Take ATXN2 C852: the “log2 mean competition ratio” value was determined as 0.83.

As to ATAD2B C437 (UniProt Q9ULI0), the “log2 mean competition ratio” value was determined as 0.168.

As to ATIC C101 (UniProt P31939), the “log2 mean competition ratio” value is -0.462.

In the case of ATAD1 C137 (UniProt Q8NBU5), the “log2 mean competition ratio” value is 0.613.

With ATP2C1 C477 (UniProt P98194), the “log2 mean competition ratio” value was -0.45.

In the case of BCORL1 C797 (UniProt Q5H9F3), the “log2 mean competition ratio” value worked out at 0.657.

ATG4B C333 (UniProt Q9Y4P1): the “log2 mean competition ratio” value turned out to be 0.126.
